According to the supplement of paper PMC4604168 (melanoma cell lines):
The list shows a part of the results. Repeats are few or missing, and single values can be far off.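 Cells were imaged in 1,536-well plates, and nuclei stained with an antibody against cleaved PARP were counted against all DNA-stained nuclei to give the apoptosis fraction. Screening doses were chosen to leave most cells alive, and resting and induced cleaved-PARP levels differ strongly between cell lines.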

System: WM115
Test: cleaved PARP positive nuclei fraction relative to DMSO control; melanoma cells; higher = more apoptosis
Conditions: library dose: low library concentration; 72 h

| SMILES | cleaved PARP positive nuclei fraction [%] |
| --- | --- |
| N.N.[Cl][Pt][Cl] [cisplatin] + OCc1c[nH]c2ccccc12 [Indole-3-carbinol] (first compound 1.6 µM, partner dose 0.8 µM) | 101 |
| NC1(c2ccc(-c3nc4ccn5c(=O)[nH]nc5c4cc3-c3ccccc3)cc2)CCC1 + N.N.[Cl][Pt][Cl] [cisplatin] (first compound 0.4 µM, partner dose 1.6 µM) | 165 |
| Cc1cc(SCc2sc(-c3ccc(C(F)(F)F)c(F)c3)nc2C)ccc1OCC(=O)O + C/C(O)=C(\C#N)C(=O)Nc1cc(Br)ccc1Br [LFM-A13] (first compound 2 µM, partner dose 2 µM) | 104 |
| N.N.[Cl][Pt][Cl] [cisplatin] + CN1CCN(c2ccc3nc(-c4c(N)c5c(F)cccc5[nH]c4=O)[nH]c3c2)CC1 [Dovitinib] (first compound 1.6 µM, partner dose 0.1 µM) | 173 |
| CC1(C)NC(=O)N(c2ccc([N+](=O)[O-])c(C(F)(F)F)c2)C1=O [nilutamide] + O=C(Oc1ccc([N+](=O)[O-])cc1)N1CCC(C(O)(c2ccc3c(c2)OCO3)c2ccc3c(c2)OCO3)CC1 [JZL184] (first compound 1 µM, partner dose 1 µM) | 112 |
| O=C(/C=C/c1cccnc1)NCCCCC1CCN(C(=O)c2ccccc2)CC1 + N.N.[Cl][Pt][Cl] [cisplatin] (first compound 0.01 µM, partner dose 1.6 µM) | 58.3 |
| Cn1cc(C2=C(c3cn(C4CCN(Cc5ccccn5)CC4)c4ccccc34)C(=O)NC2=O)c2ccccc21 [Enzastaurin] + CC(C)CCN1c2nc(Nc3cc(F)c(O)c(F)c3)ncc2N(C)C(=O)C1C [BID1870] (first compound 0.8 µM, partner dose 0.2 µM) | 68.6 |
| Cn1cc(C2=C(c3cn(C4CCN(Cc5ccccn5)CC4)c4ccccc34)C(=O)NC2=O)c2ccccc21 [Enzastaurin] + O=C(Nc1cccc(Cl)c1)Nc1ncc(CCNc2ncnc3ccsc23)s1 [SNS314] (first compound 0.8 µM, partner dose 0.0008 µM) | 46.5 |
| Cc1cc(Nc2cc(N3CCN(C)CC3)nc(Sc3ccc(NC(=O)C4CC4)cc3)n2)n[nH]1 [Tozasertib] + C[As](C)SC[C@H](NC(=O)CC[C@H](N)C(=O)O)C(=O)NCC(=O)O [Darinaparsin] (first compound 0.006 µM, partner dose 0.4 µM) | 31.7 |
| C[C@]1(O)C[C@@H](c2nc(-c3ccc4ccc(-c5ccccc5)nc4c3)c3c(N)nccn32)C1 + Cc1cc(SCc2sc(-c3ccc(C(F)(F)F)c(F)c3)nc2C)ccc1OCC(=O)O [GW0742] (first compound 0.4 µM, partner dose 2 µM) | 31.4 |
| C[As](C)SC[C@H](NC(=O)CC[C@H](N)C(=O)O)C(=O)NCC(=O)O [Darinaparsin] + Oc1cc(-c2nc(-c3ccccc3)[nH]c2-c2ccncc2)ccc1Cl [L779450] (first compound 0.4 µM, partner dose 0.2 µM) | 175 |
| CC(=O)O[C@@]12CO[C@@H]1C[C@H](O)[C@@]1(C)C(=O)[C@H](O)C3=C(C)[C@@H](OC(=O)[C@H](O)[C@@H](NC(=O)OC(C)(C)C)c4ccccc4)C[C@@](O)([C@@H](OC(=O)c4ccccc4)[C@H]21)C3(C)C [Docetaxel] + O=C(Oc1ccc([N+](=O)[O-])cc1)N1CCC(C(O)(c2ccc3c(c2)OCO3)c2ccc3c(c2)OCO3)CC1 [JZL184] (first compound 0.0001 µM, partner dose 1 µM) | 577 |
| C[C@]12O[C@H](C[C@]1(O)CO)n1c3ccccc3c3c4c(c5c6ccccc6n2c5c31)CNC4=O [Lestaurtinib] + CS(=O)(=O)c1ccc(C(=O)Nc2ccc(Cl)c(-c3ccccn3)c2)c(Cl)c1 [vismodegib] (first compound 0.004 µM, partner dose 1 µM) | 150 |
| C[As](C)SC[C@H](NC(=O)CC[C@H](N)C(=O)O)C(=O)NCC(=O)O [Darinaparsin] + COc1ccc2c(c1)CCC1C2CCC2(C)C(NCCCCCCN3C(=O)C=CC3=O)CCC12 [U73122] (first compound 0.4 µM, partner dose 0.4 µM) | 76.7 |
| C=C(c1ccc(C(=O)O)cc1)c1cc2c(cc1C)C(C)(C)CCC2(C)C [Bexarotene] + C[As](C)SC[C@H](NC(=O)CC[C@H](N)C(=O)O)C(=O)NCC(=O)O [Darinaparsin] (first compound 2 µM, partner dose 0.4 µM) | 55.2 |
| CC(=O)O[C@@]12CO[C@@H]1C[C@H](O)[C@@]1(C)C(=O)[C@H](O)C3=C(C)[C@@H](OC(=O)[C@H](O)[C@@H](NC(=O)OC(C)(C)C)c4ccccc4)C[C@@](O)([C@@H](OC(=O)c4ccccc4)[C@H]21)C3(C)C [Docetaxel] + N.N.[Cl][Pt][Cl] [cisplatin] (first compound 0.0001 µM, partner dose 1.6 µM) | 381 |

Retrieved one by one from the list above (2):

| SMILES | cleaved PARP positive nuclei fraction [%] |
| --- | --- |
| Cn1cc(C2=C(c3cn(C4CCN(Cc5ccccn5)CC4)c4ccccc34)C(=O)NC2=O)c2ccccc21 [Enzastaurin] + CC(C)CCN1c2nc(Nc3cc(F)c(O)c(F)c3)ncc2N(C)C(=O)C1C [BID1870] (first compound 0.8 µM, partner dose 0.2 µM) | 68.6 |
| C[C@]1(O)C[C@@H](c2nc(-c3ccc4ccc(-c5ccccc5)nc4c3)c3c(N)nccn32)C1 + Cc1cc(SCc2sc(-c3ccc(C(F)(F)F)c(F)c3)nc2C)ccc1OCC(=O)O [GW0742] (first compound 0.4 µM, partner dose 2 µM) | 31.4 |

(cont.)

| SMILES | cleaved PARP positive nuclei fraction [%] |
| --- | --- |
| Cc1cc(Nc2cc(N3CCN(C)CC3)nc(/C=C/c3ccccc3)n2)n[nH]1 + O=C(Oc1ccc([N+](=O)[O-])cc1)N1CCC(C(O)(c2ccc3c(c2)OCO3)c2ccc3c(c2)OCO3)CC1 [JZL184] (first compound 0.04 µM, partner dose 1 µM) | 284 |
| Cn1cnc2c(F)c(Nc3ccc(Br)cc3Cl)c(C(=O)NOCCO)cc21 [selumetinib] + N.N.[Cl][Pt][Cl] [cisplatin] (first compound 0.015 µM, partner dose 1.6 µM) | 136 |
| C[As](C)SC[C@H](NC(=O)CC[C@H](N)C(=O)O)C(=O)NCC(=O)O [Darinaparsin] + COc1cc(N2CCC(N3CCN(C)CC3)CC2)ccc1Nc1ncc(Cl)c(Nc2ccccc2S(=O)(=O)C(C)C)n1 [NVP-TAE684] (first compound 0.4 µM, partner dose 0.08 µM) | 163 |
| CC1(C)CCC(c2ccc(Cl)cc2)=C(CN2CCN(c3ccc(C(=O)NS(=O)(=O)c4ccc(N[C@H](CCN5CCOCC5)CSc5ccccc5)c(S(=O)(=O)C(F)(F)F)c4)cc3)CC2)C1 + Cn1cc(C2=C(c3cn(C4CCN(Cc5ccccn5)CC4)c4ccccc34)C(=O)NC2=O)c2ccccc21 [Enzastaurin] (first compound 0.4 µM, partner dose 0.8 µM) | 177 |
| NC(=O)c1ccc(N(C(N)=O)c2c(F)cccc2F)nc1-c1ccc(F)cc1F + C[As](C)SC[C@H](NC(=O)CC[C@H](N)C(=O)O)C(=O)NCC(=O)O [Darinaparsin] (first compound 0.4 µM, partner dose 0.4 µM) | 143 |
| C[C@]12O[C@H](C[C@]1(O)CO)n1c3ccccc3c3c4c(c5c6ccccc6n2c5c31)CNC4=O [Lestaurtinib] + Oc1nc(-c2ccc(C(F)(F)F)cc2)nc2c1CSCC2 [XAV939] (first compound 0.004 µM, partner dose 2 µM) | 197 |
| CCCCCCCCCCCCCCCCCCOP(=O)([O-])OC1CC[N+](C)(C)CC1 [Perifosine] + Cn1cc(C2=C(c3cn(C4CCN(Cc5ccccn5)CC4)c4ccccc34)C(=O)NC2=O)c2ccccc21 [Enzastaurin] (first compound 0.4 µM, partner dose 0.8 µM) | 87 |
| COc1cc2ncnc(Nc3ccc(Oc4ccccc4)cc3)c2cc1OC + C/C(O)=C(\C#N)C(=O)Nc1cc(Br)ccc1Br [LFM-A13] (first compound 2 µM, partner dose 2 µM) | 123 |
| C[C@]12O[C@H](C[C@]1(O)CO)n1c3ccccc3c3c4c(c5c6ccccc6n2c5c31)CNC4=O [Lestaurtinib] + CCN(CC)CCCCNc1ncc2cc(-c3cc(OC)cc(OC)c3)c(NC(=O)NC(C)(C)C)nc2n1 [PD173074] (first compound 0.004 µM, partner dose 0.1 µM) | 102 |
| NC(=O)Nc1cc(-c2cccc(F)c2)sc1C(=O)N[C@H]1CCCNC1 + C/C(O)=C(\C#N)C(=O)Nc1cc(Br)ccc1Br [LFM-A13] (first compound 0.02 µM, partner dose 2 µM) | 142 |
| Cc1ccc(Nc2nccc(N(C)c3ccc4c(C)n(C)nc4c3)n2)cc1S(N)(=O)=O [Pazopanib] + Cn1cc(C2=C(c3cn(C4CCN(Cc5ccccn5)CC4)c4ccccc34)C(=O)NC2=O)c2ccccc21 [Enzastaurin] (first compound 0.4 µM, partner dose 0.8 µM) | 96.5 |
| Cc1cc(Nc2cc(N3CCN(C)CC3)nc(Sc3ccc(NC(=O)C4CC4)cc3)n2)n[nH]1 [Tozasertib] + C/C(O)=C(\C#N)C(=O)Nc1cc(Br)ccc1Br [LFM-A13] (first compound 0.006 µM, partner dose 2 µM) | 155 |
| N.N.[Cl][Pt][Cl] [cisplatin] + O=c1cc(-c2cccc3c2Sc2ccccc2S3)oc(N2CCOCC2)c1 [KU55933] (first compound 1.6 µM, partner dose 1 µM) | 118 |
| Cc1cc(SCc2sc(-c3ccc(C(F)(F)F)c(F)c3)nc2C)ccc1OCC(=O)O + O=c1cc(-c2cccc3c2Sc2ccccc2S3)oc(N2CCOCC2)c1 [KU55933] (first compound 2 µM, partner dose 1 µM) | 93.8 |
| Cn1cc(C2=C(c3cn(C4CCN(Cc5ccccn5)CC4)c4ccccc34)C(=O)NC2=O)c2ccccc21 [Enzastaurin] + CN(c1ncccc1CNc1nc(Nc2ccc3c(c2)CC(=O)N3)ncc1C(F)(F)F)S(C)(=O)=O [PF562271] (first compound 0.8 µM, partner dose 0.08 µM) | 103 |
